Results taken from article PMC10616083.
These are yes or no findings as the source states them, for the method shown. In cells and extracts the contact can be indirect. Some binding calls cover weakened binding; strength is not graded here.

Amino acid sequences for entries named in this document (tags omitted). A change or cut given only in a name is not applied to a line headed by its entry. Chains listed by the source or under a name are the forms on record and can include a tag or linker.
Runt-related transcription factor 1 (RUNX1), endogenous (human (endogenous in K562, PBMCs)) (Q01196, form named): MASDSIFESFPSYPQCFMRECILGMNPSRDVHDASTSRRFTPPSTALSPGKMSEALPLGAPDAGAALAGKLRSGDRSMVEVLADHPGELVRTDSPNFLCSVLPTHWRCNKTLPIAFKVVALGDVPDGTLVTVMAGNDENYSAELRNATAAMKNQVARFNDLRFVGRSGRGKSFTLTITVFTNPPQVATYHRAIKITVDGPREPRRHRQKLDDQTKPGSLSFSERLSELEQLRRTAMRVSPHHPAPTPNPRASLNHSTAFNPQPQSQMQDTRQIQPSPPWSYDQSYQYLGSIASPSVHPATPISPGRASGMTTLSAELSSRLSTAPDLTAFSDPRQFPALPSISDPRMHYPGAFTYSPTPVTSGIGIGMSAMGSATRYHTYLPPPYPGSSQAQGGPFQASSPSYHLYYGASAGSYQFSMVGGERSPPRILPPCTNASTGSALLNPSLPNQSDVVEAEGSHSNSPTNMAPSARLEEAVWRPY
RUNX1 S94D (phospho-mimetic mutant), ectopically expressed (pDsRed1-N1 construct) (Q01196, form named): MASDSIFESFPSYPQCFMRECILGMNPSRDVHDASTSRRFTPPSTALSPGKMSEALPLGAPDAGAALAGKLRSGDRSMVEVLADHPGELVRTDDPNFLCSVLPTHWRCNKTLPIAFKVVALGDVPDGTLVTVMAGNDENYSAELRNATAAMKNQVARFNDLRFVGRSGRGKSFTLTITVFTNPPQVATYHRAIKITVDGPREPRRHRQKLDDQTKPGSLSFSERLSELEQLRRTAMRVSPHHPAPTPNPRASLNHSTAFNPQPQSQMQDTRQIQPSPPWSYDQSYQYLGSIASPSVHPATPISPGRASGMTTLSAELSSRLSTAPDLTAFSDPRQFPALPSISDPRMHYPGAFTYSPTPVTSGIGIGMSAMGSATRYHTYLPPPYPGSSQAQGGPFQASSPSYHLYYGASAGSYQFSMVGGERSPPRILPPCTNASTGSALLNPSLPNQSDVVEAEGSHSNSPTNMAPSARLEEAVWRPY
UniProt P40763: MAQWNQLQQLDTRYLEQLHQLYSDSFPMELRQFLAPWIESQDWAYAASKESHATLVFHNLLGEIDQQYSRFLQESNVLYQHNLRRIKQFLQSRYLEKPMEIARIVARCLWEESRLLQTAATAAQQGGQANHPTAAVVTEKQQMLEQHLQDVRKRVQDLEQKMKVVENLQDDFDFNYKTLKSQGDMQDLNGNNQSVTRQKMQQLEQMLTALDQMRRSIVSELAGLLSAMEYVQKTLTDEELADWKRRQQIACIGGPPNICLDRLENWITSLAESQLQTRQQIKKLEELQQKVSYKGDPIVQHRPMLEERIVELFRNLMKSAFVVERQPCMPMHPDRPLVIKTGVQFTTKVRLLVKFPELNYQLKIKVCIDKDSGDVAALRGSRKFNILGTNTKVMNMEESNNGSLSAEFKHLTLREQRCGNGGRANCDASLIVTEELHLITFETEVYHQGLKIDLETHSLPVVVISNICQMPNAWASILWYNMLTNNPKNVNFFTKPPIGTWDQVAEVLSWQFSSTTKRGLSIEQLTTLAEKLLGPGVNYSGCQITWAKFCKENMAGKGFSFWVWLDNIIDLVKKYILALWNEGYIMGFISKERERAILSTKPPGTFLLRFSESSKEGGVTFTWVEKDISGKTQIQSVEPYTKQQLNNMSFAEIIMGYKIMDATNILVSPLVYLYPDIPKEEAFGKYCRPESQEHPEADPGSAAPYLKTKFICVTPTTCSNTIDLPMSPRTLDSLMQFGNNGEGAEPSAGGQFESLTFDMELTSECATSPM

What was measured:
[1] = target: Runt-related transcription factor 1 (RUNX1), endogenous (human (endogenous in K562, PBMCs)) (UniProt Q01196); test: co-IP; endogenous proteins, lysates of PBMCs from subjects (500 ug protein) precipitated with RUNX1 antibody, immunoblot; cells with or without metformin (10 mM) for 6 h
[2] = target: RUNX1 S94D (phospho-mimetic mutant), ectopically expressed (pDsRed1-N1 construct) (human) (UniProt Q01196); test: co-IP; HEK-293T cells transfected with RUNX1 WT, S94A or S94D, with or without metformin (10 mM, 6 h, given 48 h after transfection); lysate precipitated with RUNX1 antibody, immunoblot for endogenous STAT3
[3] = target: RUNX1 WT, ectopically expressed (pDsRed1-N1 construct) (human) (UniProt Q01196); test: as above
[4] = target: Runt-related transcription factor 1 (RUNX1), endogenous (human (endogenous in K562, PBMCs)) (UniProt Q01196); test: co-IP; endogenous proteins, K562 WT lysate (750 ug protein) precipitated with 1 ug RUNX1 antibody overnight at 4 C, protein A/G plus agarose beads, immunoblot; cells untreated or treated with metformin (10 mM) or compound C (5 uM) for 6 h
[5] = target: Runt-related transcription factor 1 (RUNX1), endogenous (human (endogenous in K562, PBMCs)) (UniProt Q01196); test: co-IP; endogenous proteins, lysates of imatinib-resistant K562 IR1 and IR2 cells precipitated with RUNX1 antibody, immunoblot; cells untreated or treated with metformin (10 mM), compound C (5 uM), imatinib (1 uM) or metformin plus imatinib for 6 h

Measured: binding

signal transducer and activator of transcription 3 (STAT3), endogenous (from UniProt P40763 1-770)
binds: all assays above
